Data as given in PubChem BioAssay AID1259405 (NCATS, 2018)

Screen: 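Mouse-designed siRNAs used to find CHO productivity engineering targets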 (primary screen)
Cell system: Chinese hamster CHO-K1 ovary cells with stable secreted eGFP expression
Reagent: single siRNA against mouse genes, 0.8 pmol siRNA per well (2 µl of 400 nM stock)
Duration: 3 days
Measured: 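Per-well intracellular GFP measured by laser scanning cytometry, plus viability from ATP luminescence, each relative to plate median of non-targeting control wells, in %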
Direction: GFP, % of control: higher = more GFP per well, higher productivity; viability (ATP), % of control: higher = more viable cells (more ATP)
Call rule: 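Called active when intracellular GFP, relative to negative control, is at or above 120%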
In all, the deposit lists about 50,000 reagents; this is an unselected part. In the full data, about 4,000 (8%) are marked active. 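Mouse siRNA library applied to hamster cells; one well for each siRNA.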 Reagents against one gene are numbered here.

gene	reagent no.	GFP, % of control	viability (ATP), % of control	activity call
Spatc1l (spermatogenesis and centriole associated 1 like)	1	66.9	59.8	inactive
Spatc1l (spermatogenesis and centriole associated 1 like)	2	21.4	19.3	inactive
Spatc1l (spermatogenesis and centriole associated 1 like)	3	118	124	inactive
Tex29 (testis expressed 29)	1	61.5	80.5	inactive
Tex29 (testis expressed 29)	2	79.1	86.5	inactive
Tex29 (testis expressed 29)	3	61.5	76.7	inactive
Or5p69 (olfactory receptor family 5 subfamily P member 69)	1	69.3	84.4	inactive
Or5p69 (olfactory receptor family 5 subfamily P member 69)	2	71.2	50.4	inactive
Or5p69 (olfactory receptor family 5 subfamily P member 69)	3	74.5	66.9	inactive
Npnt (nephronectin)	1	71.4	52.7	inactive
Npnt (nephronectin)	2	75.2	79.7	inactive
Npnt (nephronectin)	3	26.3	43.6	inactive
Wrap53 (WD repeat containing, antisense to Trp53)	1	48.7	62.6	inactive
Wrap53 (WD repeat containing, antisense to Trp53)	2	82	93.5	inactive
Wrap53 (WD repeat containing, antisense to Trp53)	3	129	130	active
Efna2 (ephrin A2)	1	42	57.2	inactive
Efna2 (ephrin A2)	2	69.3	73.7	inactive
Efna2 (ephrin A2)	3	115	67	inactive
Crem (cAMP responsive element modulator)	1	54.5	57.9	inactive
Crem (cAMP responsive element modulator)	2	55	49.7	inactive
Crem (cAMP responsive element modulator)	3	132	111	active
Btd (biotinidase)	1	154	103	active
Btd (biotinidase)	2	131	91.9	active
Btd (biotinidase)	3	85	79	inactive
Snx12 (sorting nexin 12)	1	63.3	64.4	inactive
Snx12 (sorting nexin 12)	2	72.9	69.4	inactive
Snx12 (sorting nexin 12)	3	40	43.6	inactive
Slc28a2	1	104	99.4	inactive
Slc28a2	2	36	70.3	inactive
Slc28a2	3	156	89	active
Tacr1 (tachykinin receptor 1)	1	70.5	70.1	inactive
Tacr1 (tachykinin receptor 1)	2	81.4	88.8	inactive
Tacr1 (tachykinin receptor 1)	3	78.6	86.1	inactive
Taok1 (TAO kinase 1)	1	98.5	82.2	inactive

Records listed so far whose target name starts with E or e:
gene	reagent no.	GFP, % of control	viability (ATP), % of control	activity call
Efna2 (ephrin A2)	1	42	57.2	inactive
Efna2 (ephrin A2)	2	69.3	73.7	inactive
Efna2 (ephrin A2)	3	115	67	inactive
